# Hit rate of the full screen: of about 280,000 compounds, about 180 (0.064%) were called active. Inconclusive means that the source gave no clear call. Such entries were picked first, then a sample of the others. Calls follow the shape of the dose curve; as a rule, active = well fitted inhibition curve with a large enough effect; inconclusive = small, poorly fitted or top-dose-only effect, or effect the other way; inactive = flat fitted curve, though single readings scatter. Potencies beside an inconclusive call are fits to weak or partial responses and may not hold up.
# Sequences of proteins named here, by UniProt entry; tags and fusion partners are left off. A change or cut given only in a name is not applied to a line headed by its entry.
# UniProt P10828: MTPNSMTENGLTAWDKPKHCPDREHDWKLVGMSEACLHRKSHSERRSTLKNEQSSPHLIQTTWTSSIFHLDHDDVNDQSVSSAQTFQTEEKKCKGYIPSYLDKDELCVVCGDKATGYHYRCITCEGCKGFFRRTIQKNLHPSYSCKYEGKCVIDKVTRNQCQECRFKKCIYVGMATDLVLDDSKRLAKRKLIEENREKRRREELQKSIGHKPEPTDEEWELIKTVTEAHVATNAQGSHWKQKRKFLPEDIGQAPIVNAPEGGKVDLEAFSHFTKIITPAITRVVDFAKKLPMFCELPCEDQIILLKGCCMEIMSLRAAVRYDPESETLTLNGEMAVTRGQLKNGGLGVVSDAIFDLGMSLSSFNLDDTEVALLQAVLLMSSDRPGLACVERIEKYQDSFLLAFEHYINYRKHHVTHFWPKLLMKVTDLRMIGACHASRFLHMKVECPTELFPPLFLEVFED
# Molecular target: Thyroid hormone receptor beta (Homo sapiens) (UniProt P10828)
# Assay: qHTS for Inhibitors of the Interaction of Thyroid Hormone Receptor and Steroid Receptor Coregulator 2; also: nearly all actives have a fitted effect of over 50% in size;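 as to activity change, negative = inhibition: plate controls were bound peptide for no effect and peptide without receptor for full effect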
# Conditions: TRbeta-SRC2 peptide binding, fluorescence polarization, receptor liganded with 1 µM T3; series mostly up to 106 µM; activity change, negative = inhibition: at the top concentration
# Summary of the method: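 Quantitative HTS by FP: 0.6 uM TRb LBD, 20 nM labeled SRC2 20-mer, 1 uM T3, 5% DMSO; 5 hr ambient incubation; % activity per concentration and potencies from concentration series.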
# Potency is read from the fitted curve at half-maximal effect.
SMILES,"activity change, negative = inhibition",Potency
CC(C)CCNC(=O)C(c1ccc(O)cc1)N(Cc1cccs1)C(=O)C1COc2ccccc2O1 (stereo unspecified),inactive: -5.93%,
CCOc1cccc(NC(=O)c2sc3nc(-c4ccc(F)cc4)ccc3c2N)c1,inactive: -5.8%,
Cc1nc2ncccn2c1-c1csc(Nc2ccccc2)n1,inactive: -5.53%,
CCCN(CCC(=O)Nc1cc(OC)cc(OC)c1)CC1CC1,inactive: -1.61%,
CCN(Cc1cccc(S(=O)(=O)O)c1)c1ccc(C(=C2C=CC(=[N+](CC)Cc3cccc(S(=O)(=O)[O-])c3)C=C2)c2ccccc2)cc1,,"inconclusive: 126 µM [activator, single point]"
CC[n+]1c(/C=C/C=C/N(C(C)=O)c2ccccc2)sc2cc(OC)ccc21,,"inconclusive: 39.8 µM [activator, partial curve]"
Nc1ccc(N2CCOCC2)c2nonc12,,"inconclusive: 6.31 µM [inhibitor, full curve]"
O=C(Nc1cccc(Cl)c1)OCC#CCCl,,active: 0.794 µM
CC(=O)C(C(C)=O)C1(O)C(=O)c2ccccc2C1=O,,"inconclusive: 35.5 µM [inhibitor, partial curve]"
Cc1nc(C)n(CC(O)COc2ccc(C(=O)c3ccccc3)cc2)n1 (stereo unspecified),inactive: 3.22%,
COc1ccc(/C=C2\CCn3c2nc2cc(C(=O)O)ccc2c3=O)cc1O,,"inconclusive: 8.91 µM [inhibitor, partial curve]"
CCOc1ccc(NC(=NCc2ccc3c(c2)OCO3)SC2CC(=O)N(c3ccc(C(=O)O)cc3)C2=O)cc1 (stereo unspecified),,"inconclusive: 10 µM [activator, partial curve]"
N#CC(Cc1ccc(O)c(O)c1)C(=O)N1CCc2ccccc21 (stereo unspecified),inactive: 10.4%,
O=C(NC(=S)Nc1cccc(Cl)c1N1CCOCC1)c1cccs1,inactive: 3.12%,
Cc1[nH][nH]c(=O)c1C(c1ccc(-c2ccccc2C(=O)O)o1)c1c(C)[nH][nH]c1=O,,"inconclusive: 22.4 µM [inhibitor, full curve]"
Cc1cc(C(=O)N/N=C/c2ccc(O)c(O)c2O)c(C)n1-c1ccccc1,inactive: 6.14%,
Cc1[nH][nH]c(=O)c1C(c1c(C)[nH][nH]c1=O)c1cn(Cc2ccc(Cl)c(Cl)c2)c2ccccc12,,"inconclusive: 22.4 µM [inhibitor, full curve]"
CCN(CC)S(=O)(=O)c1ccc(C(=O)NCc2ccc3c(c2)cc(C)n3C)cc1,,active: 39.8 µM
CC(C)C(=O)N(c1cc2sc(=O)oc2c2ccccc12)S(=O)(=O)c1cccs1,inactive: -5.18%,
Cc1cc2cc(CNS(=O)(=O)c3ccc4ccccc4c3)ccc2n1C,,active: 44.7 µM
O=C(N/N=C/c1ccc(Sc2ccccn2)o1)c1cc2ccccc2cc1O,,"inconclusive: 39.8 µM [activator, partial curve]"
CCOc1ccccc1CNc1ccc(O)cc1,,active: 28.2 µM
Cc1cc2oc(C(=O)Nc3cccc(-c4nc5ccccc5o4)c3)c(C)c2cc1C,,"inconclusive: 35.5 µM [inhibitor, single point]"
CC1CCCN(c2nc3c(c(=O)[nH]c(=O)n3C)n2Cc2ccccc2Cl)C1 (stereo unspecified),,"inconclusive: 44.7 µM [inhibitor, partial curve, poor fit]"

# Fetched one by one from the list above:
SMILES,"activity change, negative = inhibition",Potency
Cc1cc2oc(C(=O)Nc3cccc(-c4nc5ccccc5o4)c3)c(C)c2cc1C,,"inconclusive: 35.5 µM [inhibitor, single point]"
CCOc1ccccc1CNc1ccc(O)cc1,,active: 28.2 µM

# (next part)

SMILES,"activity change, negative = inhibition",Potency
CCOc1ccc(C2=Cc3cc(OC)c(OC)cc3C(=C(Cl)Cl)O2)cc1,,active: 28.2 µM
CCCCn1c(=O)nc2n(-c3ccc(Br)cc3)c3ccccc3cc-2c1=O,,"inconclusive: 22.4 µM [inhibitor, single point]"
CC1C2(C)OC(=N)C(C#N)(C(C)O2)C1(C#N)C#N (stereo unspecified),,"inconclusive: 63.1 µM [inhibitor, partial curve, poor fit]"
Oc1ccc(NCc2ccccc2OCc2ccc(Cl)cc2)cc1,,"inconclusive: 2 µM [inhibitor, partial curve]"
COc1cc(Cl)c(C)cc1NS(=O)(=O)c1c(C)nc2sccn2c1=O,,"inconclusive: 79.4 µM [inhibitor, single point]"
O=c1cc2oc3cc(O)c(O)cc3c(-c3ccccc3O)c-2cc1O,,active: 17.8 µM
COc1ccc(C(=O)C2CCCN(C(=O)CCc3scnc3C)C2)c(C)c1 (stereo unspecified),,"inconclusive: 50.1 µM [inhibitor, partial curve]"
O=C(Nc1ccccc1)Nc1cc(OCC(F)(F)F)cc(OCC(F)(F)F)c1,inactive: 4.05%,
COc1cccc(-c2ccc3c(N)c(C(=O)Nc4ccccc4C)sc3n2)c1,inactive: 3.02%,
C(=Nc1ccc(N2CCOCC2)cc1)c1c[nH]c2ccccc12,,"inconclusive: 22.4 µM [inhibitor, full curve]"
CC(C)(C)NC(=O)COC(=O)c1cc(F)c(F)cc1Cl,inactive: 3.75%,
COc1ccc(-c2cnc(NCc3ccc(C)cc3)n2C)cc1,,"inconclusive: 3.98 µM [inhibitor, full curve, poor fit]"
CN(C)[C@H]1C(=O)C(C(=O)NCN2CCCC2)=C(O)[C@]2(O)C(=O)C3=C(O)c4c(O)cccc4[C@](C)(O)[C@H]3C[C@H]12,,"inconclusive: 50.1 µM [inhibitor, single point]"
Brc1ccc2[nH]ncc2c1,inactive: 1.62%,
CC(C)n1c(=N)c(C(=O)NCc2cccnc2)cc2c(=O)n3ccccc3nc21,inactive: 3.92%,
CCOC(=O)c1[nH]c2ccc(F)cc2c1NC(=O)c1cc(OC)c(OC)c(OC)c1,inactive: -8.13%,
COC(=O)/C(=C/Nc1ccc(O)cc1)[N+](=O)[O-],,"inconclusive: 15.8 µM [inhibitor, partial curve]"
COc1ccc(OC)c(N)c1,,"inconclusive: 44.7 µM [inhibitor, partial curve]"
CCCCCCN1C=C/C(=C\C=C(C#N)C#N)c2ccccc21,,active: 39.8 µM
O=C(O)CCCNc1cc(N2CCC3(CC2)OCCO3)c2noc3c2c1C(=O)c1ccccc1-3,,active: 22.4 µM
COc1ccc(/C=C(/C#N)c2nc(-c3ccc(-c4ccccc4)cc3)cs2)cc1OC,,"inconclusive: 3.55 µM [inhibitor, partial curve]"
CCOc1ccccc1NC(=O)COC(=O)Cc1ccc(-c2ccccc2)cc1,,"inconclusive: 8.91 µM [activator, single point]"
Cc1ccc(Nc2nnc(-c3cc4c(ccc5ccccc54)oc3=O)s2)cc1,,"inconclusive: 35.5 µM [inhibitor, partial curve]"
Cc1ccc(N=Cc2cccc(O)c2O)c(C)c1,,"inconclusive: 31.6 µM [inhibitor, full curve, poor fit]"

SMILES,"activity change, negative = inhibition",Potency
O=C(Nc1c(F)cc(F)cc1Br)c1cc(-c2ccc(O)cc2)on1,,"inconclusive: 79.4 µM [activator, single point]"
CCOC(=O)c1cc(CC)sc1/N=C/c1c(O)ccc2ccccc12,,"inconclusive: 70.8 µM [inhibitor, single point]"
CC(=O)/C=C1/C(=O)Nc2ccccc21,inactive: 3.34%,
CC1CCN(C(=O)Nc2ccc3nsnc3c2)CC1,,"inconclusive: 17.8 µM [inhibitor, full curve]"
COc1ccc(C(=O)/C=C/Nc2ccc(S(=O)(=O)Nc3ncccn3)cc2)cc1,,"inconclusive: 0.0063 µM [inhibitor, full curve]"
OCC(CO)(CO)N=Cc1c(O)ccc2ccccc12,,"inconclusive: 70.8 µM [inhibitor, single point]"
O=[N+]([O-])c1cc(Cl)cc(/C=N/Nc2nc3ccccc3s2)c1O,inactive: 2.95%,
Cc1ccc(C)c(OCCCC(=O)Nc2ccc(N3CCOCC3)cc2)c1,inactive: -1.05%,
COc1ccccc1OCC(O)Cn1c(=N)n(Cc2ccccc2)c2ccccc21 (stereo unspecified),,"inconclusive: 100 µM [inhibitor, partial curve, poor fit]"
O=C(CSc1nnnn1-c1ccc2c(c1)OCO2)NCc1cccs1,,"inconclusive: 0.0158 µM [inhibitor, full curve, poor fit]"
COC(=O)c1ccc(NC(=O)C(=O)N2CCN(C(=S)NCCc3ccccc3)CC2)cc1,inactive: 3.94%,
COc1cccc(-c2cnc(NCc3cc(Cl)ccc3O)n2C)c1,inactive: -11.3%,
COc1cccc(Nc2nc(-c3cccs3)nc3ccccc23)c1,inactive: -7.36% [at 53 µM],
O=S(=O)(c1ccccc1)c1cccc(S(=O)(=O)N2CCCCC2)c1,,"inconclusive: 63.1 µM [inhibitor, partial curve]"
Cc1ccc(S(=O)(=O)Cc2nc(-c3ccc(C(=O)NCc4ccccc4F)cc3)oc2C)cc1,,"inconclusive: 44.7 µM [activator, partial curve]"
CCn1c(CSc2nc3ccccc3[nH]2)nc2cc(C(=O)O)ccc21,,"inconclusive: 44.7 µM [inhibitor, partial curve]"
O=C1C(=O)c2ccc(-c3ccccc3)cc2-c2ccccc21,,"inconclusive: 4.47 µM [inhibitor, full curve]"
C=CCNC(=O)/C(C#N)=C\c1cc(Cl)c(OCC)c(OC)c1,,"inconclusive: 44.7 µM [inhibitor, partial curve]"
Cc1ccccc1NC(=O)c1ccc(Cl)c(S(=O)(=O)N2CCCCCC2)c1,,"inconclusive: 35.5 µM [inhibitor, partial curve]"
Oc1cccc(C=NCc2ccccc2)c1O,,"inconclusive: 79.4 µM [inhibitor, single point]"
COCCn1nnnc1C(c1cc2c(C)cc(C)cc2[nH]c1=O)N1CCCCCC1 (stereo unspecified),,"inconclusive: 89.1 µM [inhibitor, partial curve]"
N#CC1=C(N)N(c2ccc(F)cc2)C2=C(C1c1ccc(O)cc1)S(=O)(=O)CC2 (stereo unspecified),,"inconclusive: 17.8 µM [activator, partial curve]"
COc1cc(OC)cc(-c2nnc(Sc3ccc(C=O)cc3[N+](=O)[O-])o2)c1,,"inconclusive: 44.7 µM [inhibitor, partial curve]"

# — PubChem BioAssay AID1469 (National Center for Advancing Translational Sciences (NCATS), 2008)
